1 molecule from article PMC5558966 can be followed below.

Amino acid sequences for entries named in this document (tags omitted).
UniProt Q02821: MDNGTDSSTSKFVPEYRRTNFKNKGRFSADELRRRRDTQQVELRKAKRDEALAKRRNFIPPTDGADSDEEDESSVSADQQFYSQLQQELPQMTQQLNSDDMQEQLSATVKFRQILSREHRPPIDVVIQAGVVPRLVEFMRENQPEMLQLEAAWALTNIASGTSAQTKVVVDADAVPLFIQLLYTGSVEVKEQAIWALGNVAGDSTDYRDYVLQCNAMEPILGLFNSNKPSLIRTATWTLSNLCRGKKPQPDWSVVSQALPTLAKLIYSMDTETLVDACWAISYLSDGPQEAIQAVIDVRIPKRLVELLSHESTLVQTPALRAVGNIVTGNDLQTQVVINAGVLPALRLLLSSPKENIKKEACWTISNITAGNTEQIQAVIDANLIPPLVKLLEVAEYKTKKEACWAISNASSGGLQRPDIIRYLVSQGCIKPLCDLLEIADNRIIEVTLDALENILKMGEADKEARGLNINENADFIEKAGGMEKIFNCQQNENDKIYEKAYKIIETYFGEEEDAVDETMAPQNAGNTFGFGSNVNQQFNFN

The target in this experiment is Srp1/Kap60 (S. cerevisiae) (UniProt Q02821). Put plainly: co-IP; data not shown; non-radioactive pulse-chase analyses combined with affinity-purification in S. cerevisiae.

No constants are given. Whether binding was seen depends on the method and setting. In cells and extracts the contact can be indirect. Some results given as binding are weak or reduced against the parent protein; the word gives no strength.

B1: newly synthesized scMpp10 (protein, UniProt P47083 1-593)
chain: MSELFGVLKSNAGRIILKDPSATSKDVKAYIDSVINTCKNGSITKKAELDEITVDGLDANQVWWQVKLVLDSIDGDLIQGIQELKDVVTPSHNLSDGSTLNSSSGEESELEEAESVFKEKQMLSADVSEIEEQSNDSLSENDEEPSMDDEKTSAEAAREEFAEEKRISSGQDERHSSPDPYGINDKFFDLEKFNRDTLAAEDSNEASEGSEDEDIDYFQDMPSDDEEEEAIYYEDFFDKPTKEPVKKHSDVKDPKEDEELDEEEHDSAMDKVKLDLFADEEDEPNAEGVGEASDKNLSSFEKQQIEIRKQIEQLENEAVAEKKWSLKGEVKAKDRPEDALLTEELEFDRTAKPVPVITSEVTESLEDMIRRRIQDSNFDDLQRRTLLDITRKSQRPQFELSDVKSSKSLAEIYEDDYTRAEDESALSEELQKAHSEISELYANLVYKLDVLSSVHFVPKPASTSLEIRVETPTISMEDAQPLYMSNASSLAPQEIYNVGKAEKDGEIRLKNGVAMSKEELTREDKNRLRRALKRKRSKANLPNVNKRSKRNDVVDTLSKAKNITVINQKGEKKDVSGKTKKSRSGPDSTNIKL
In the case of B1, the binding result was “binds”.
